Laboratory results reported in PMC10163288.
The list shows a part of the results.

B1: il10ra_site1_normal_mot_HHH_b2_06795_000000133_0001_42_56_H_._HHH_b1_02165_0001_0000400030_0000001_0 (protein)
chain: SSSSDELEERVRQALRFVRALLEAGNPEAAELLLRQLEEVVKRHNNEELLELVRELLEEVRSSSS
B2: il10ra_site1_normal_mot_HHH_b2_00612_000000251_0001_1_14_H_._HHH_b1_06195_0001_0000100001_0000003_0 (protein)
chain: SSSSDLSEEVRRVLEEAAELQWEGNPEEAERLLEELEELIREKGNQLALWSVEYLLRQIEKSSSS
B3: il10ra_site1_normal_mot_HHH_b1_02997_000000220_0001_39_52_H_._HHH_b1_07718_af2_0001_0000200010_0000001_0_af2pred_0001 (protein)
chain: SSSSSHELRERVQELARRAAELHAEGDPEEARELLEEAEELAEEGNNLVLLVIVRYILELASSSS
B4: il10ra_site1_sap_17_mot_HHH_b2_05084_af2_000000250_0001_43_57_H_._HHH_b1_08533_0001_0000700070_0000001_0_0001_af2pred_0001 (protein)
chain: SSSSDAEHLLELAEIALELLLKAGDEEKVEEVLELVERLARALNDEEVLERVKELEEELHSSSSS
B5: il10ra_site1_sap_16_mot_HHH_b2_01447_af2_000000258_0001_1_20_H_._HHH_b1_00719_af2_0001_0000200004_0000002_0_0001_af2pred_0001 (protein)
chain: DEEEEVARIILELLKQGIPPEEAIIIVAQEIAELKNPELSHLISRIYALLNRNPEEARELLEELH
B6: il10ra_site1_normal_mot_HHH_b1_02062_000000185_0001_1_20_H_._HHH_b1_08089_0001_0000100003_0000001_0_af2pred_0001 (protein)
chain: SSSSDVEERVEELFEEVEELLRQGDVEEAFKVSREMIELASENQDDEAAELAREASRLFARSSSS
B7: il10ra_site1_normal_mot_HHH_b1_01821_000000158_0001_23_39_H_._HHH_b2_04755_0001_0000100013_0000001_0 (protein)
chain: SSSSDLEEEVERLLEEAEKLYEEGNPEEVLELLLEALQLALENSNKELLQLVWRVFKELRGSSSS
B8: il10ra_site1_sap_27_mot_104c758fc23488854646035ccb2100c6_0001_000000282_0001_15_29_H_._5a9d7fc92c57439179869c3e1d567c11_0001_0001_0000100005_0000001_0_0001_af2p … (protein)
chain: SSSSSPLEKKLEATTKYLKFCLSHNDLEGIKSGLIALKQLGDESGNEEAKKVAAEVEEKLKSSSS
B9: il10ra_site1_sap_24_mot_HHH_b2_00475_000000107_0001_44_57_H_._HHH_b1_04576_0001_0000500027_0000001_0_0001 (protein)
chain: DLLELAFELQRRQGTPPEDVIRALLYLAHAANDPERVELLEEVLKLLEDGDPERAEELLKEASKR
B10: il10ra_site1_normal_mot_HHH_b1_07679_000000198_0001_1_20_H_._HHH_b2_07151_0001_0000400029_0000002_0_af2pred_0001 (protein)
chain: SSSSSSDELFERVAELLREATQIEDEEERRQVLEEAKELAEEGNNEALKISIEFIEEAHSSSSSS
B11: il10ra_site1_normal_mot_HHH_b2_03183_af2_000000055_0001_40_56_H_._HHH_b1_07720_af2_0001_0000100002_0000001_0 (protein)
chain: SSSSDREELLRAVLRLLEQALEIGDEHAFRRLLEAAKRAAELNNDEEILQLLEELEKEVNSSSSS
B12: il10ra_site1_sap_11_mot_HHH_b2_05111_af2_000000002_0001_42_56_H_._HHH_b1_02798_af2_0001_0000600018_0000001_0_0001 (protein)
chain: SSSSDTQEIYELLEELVRALHNGDEELFEEIFERVERLIEEAGSRNLRMVLEFLERLFRSLSSSS
B13: il10ra_site1_sap_16_mot_HHH_b2_04680_000000215_0001_1_16_H_._HHH_b1_08024_0001_0000300027_0000001_0_0001_af2pred_0001 (protein)
chain: SSSSSSDLSQRIVELIREAMQIEDPEEAEEVLEEAQELAEEAGSPLFRRAVEFALRRLSSSSSSS
B14: il10ra_site1_normal_mot_HHH_b1_00999_000000080_0001_41_55_H_._HHH_b2_05299_af2_0001_0000700032_0000001_0 (protein)
chain: SSSSSDEEKRERAEELIEEAEEIEDPEELIRVLTEALRLLYEVNDKELLQELWELIKRLGSSSSS
B15: il10ra_site1_sap_27_mot_HHH_b1_01011_000000096_0001_1_19_H_._HHH_b2_07786_0001_0000100003_0000001_0_0001_af2pred_0001 (protein)
chain: SSSSNDQELAELALMFVRFLEEEGDEEALRRMLKAARQLAKQANDEEILRELEEILEELESSSSS
B16: il10ra_site1_normal_mot_HHH_b1_00915_000000117_0001_1_19_H_._HHH_b2_00147_af2_0001_0000100003_0000002_1 (protein)
chain: SSSSSTLEFAVRFALRVVEELLELGDPEKARAILEALRRHLEEAGDEELLRIVEELLEEISSSSS
B17: il10ra_site1_normal_mot_HHH_b1_02397_af2_000000085_0001_39_57_H_._HHH_b2_07136_af2_0001_0000100007_0000001_0_af2pred_0001 (protein)
chain: SSSSDEEEEEVEKLIEELKRAIENNDPELLARLARRALKLALELGDEELLQEIRKLFRRALSSSS
B18: il10ra_site1_sap_15_mot_HHH_b1_00456_000000263_0001_1_17_H_._HHH_b2_03029_0001_0000100004_0000002_0_0001 (protein)
chain: DEEEEELAELLKEGDPEAERLIEELIAELMGFPPEQARKVLELQERQIGDPRQAVLAALRAARMV
B19: il10ra_site1_normal_mot_HHH_b2_03220_af2_000000223_0001_23_40_H_._HHH_b1_06979_af2_0001_0000200009_0000001_0 (protein)
chain: SSSSSERERVWRLLREILELWANGNPEEAEELLEEAQRLVEEANSELFKFAVEAVERAVRLSSSS
B20: il10ra_site1_normal_mot_8756ee2cf497b5429c717dfc0c0bcfd6_0001_000000186_0001_1_13_H_._HHH_b1_01984_af2_0001_0000400009_0000002_0_af2pred_0001 (protein)
chain: SSSSSDLEELLRLLREIAKLLHEGDEEEAEKLIERAEEIAEELNDEVARAILRFLQERLNSSSSS
B21: il10ra_site1_sap_15_mot_HHH_b1_07185_000000289_0001_1_15_H_._649a1d3161f016c9e54e9aa878614165_0001_0001_0000200009_0000001_0_0001 (protein)
chain: SSSSSEVEQEVREILEEAEELAKEGDPEKVSRVLLEALKVAWRHSDKEALQLVWEVVHRLGSSSS
B22: il10ra_site1_normal_mot_HHH_b2_06786_000000018_0001_41_57_H_._HHH_b1_06130_0001_0000700040_0000002_0 (protein)
chain: SSSSSSSEEEEEVEELVEEVKEDPRLAQRAVRRVYKLADETNDPRLLALLWRLFKELISSSSSSS
B23: il10ra_site1_normal_mot_HHH_b2_04681_000000155_0001_43_57_H_._HHH_b2_07082_0001_0000100001_0000001_0 (protein)
chain: SSSSDVTERFRELVEKLSQLVREGDDEEARELLKEIEELAEEANSHILREQAEFLRRIVEQSSSS
B24: il10ra_site1_sap_21_mot_HHH_b1_01693_000000146_0001_1_17_H_._HHH_b2_04774_0001_0000200019_0000002_0_0001_af2pred_0001 (protein)
chain: SSSSDDIERALERLLEALEHAVRLGDEEKIRLSTKDIKASAKDANDPEVEERAEELLREFGSSSS
B25: il10ra_site1_sap_22_mot_HHH_b2_03631_af2_000000003_0001_42_56_H_._HHH_b1_03142_0001_0000100002_0000002_0_0001 (protein)
chain: SLEEELEELLRELGVPPERIRLLQLAFRVQRRQGSPPEDVLRALLYLLHAAGSPAREAVEELLRR
B26: il10ra_site1_sap_17_mot_b26a303360aa2756ef5b79665ce52f45_0001_000000179_0001_1_11_H_._HHH_b1_05676_af2_0001_0000100003_0000001_0_0001_af2pred_0001 (protein)
chain: SSSSDADERAVELLIKAVKQLLEKGNEELAKLTLHIAELAAKATNNEELEKELEKLRELLSSSSS
B27: il10ra_site1_normal_mot_65b8060e20531850bca9f2e11f97d954_0001_af2_000000137_0001_17_31_H_._HHH_b1_03310_0001_0000200016_0000001_1_af2pred_0001 (protein)
chain: SSSSDEEERRVSELFVKAAQLLDEGNPEEAKKLLEEMEELAEEGNNEKLRLTVRFLKALIESSSS
B28: il10ra_site1_normal_mot_HHH_b2_00984_000000042_0001_1_20_H_._HHH_b1_00874_af2_0001_0000200003_0000001_0 (protein)
chain: SSSSSDEEEERAEELLEQAKRIPDPREAIELLAEAVQLALRLGDEELLQEIWEIIKKLESSSSSS
B29: il10ra_site1_sap_28_mot_HHH_b1_07527_000000076_0001_1_15_H_._HHH_b1_01190_0001_0000500043_0000001_0_0001_af2pred_0001 (protein)
chain: SSSSSKEDREIVELLRRIIELLAEGDEEEARELLEEAEELARENNNLLAEVIIRFLQKHVESSSS
B30: il10ra_site1_sap_22_mot_HHH_b2_00033_000000036_0001_41_54_H_._HHH_b1_03321_0001_0000100007_0000001_0_0001 (protein)
chain: SSSSSEEEEELRELLERIEEAVRRGDPELFAELVQELLHLAYQLRDEEVLQELYRLFKKAASSSS
B31: il10ra_site1_normal_mot_HHH_b1_05757_000000171_0001_42_57_H_._20bd334181f53d5e88893876e50d2750_0001_0001_0000100001_0000001_0_af2pred_0001 (protein)
chain: DPRVVEVLREVIEKFADDPEAQRLVREASRLLNNGNPEKALELLLELAEELGDPELERKVEELLK
B32: il10ra_site1_normal_mot_HHH_b2_06979_000000158_0001_42_57_H_._HHH_b2_02744_af2_0001_0000100001_0000001_0_af2pred_0001 (protein)
chain: SSSSNEVSRRLLELIRRAAELRDRGDPEEAEEVLEEAKELAEENNDELFLIVVEFALRSLSSSSS
B33: il10ra_site1_sap_20_mot_HHH_b1_02397_af2_000000085_0001_39_57_H_._HHH_b2_04674_0001_0000100007_0000001_0_0001 (protein)
chain: SSSSSSDREEEIEELIEEAKQIPDPREAAEVLARAVRLALENSNEELLQEIWELVLRLSSSSSSS
B34: il10ra_site1_normal_mot_HHH_b2_01310_000000089_0001_41_55_H_._HHH_b2_02502_af2_0002_0000400031_0000001_0 (protein)
chain: SSSSDELEKELERLIEEIEELIEEGDPERAVRLLQRLVQYAFRAGDEEALRRAIELAELLGSSSS
B35: il10ra_site1_normal_mot_HHH_b1_02062_000000185_0001_1_20_H_._HHH_b2_01039_af2_0001_0000200011_0000001_0_af2pred_dldesign_0_af2pred (protein)
chain: SSSSSSDVQRIVDLIREALELYAEGKLEEAKKVAEEALELAKKLNNPIFIETAEYVLEKISSSSS
B36: il10ra_site1_normal_mot_HHH_b2_00033_000000036_0001_41_54_H_._HHH_b2_05675_0001_0000500028_0000002_0 (protein)
chain: SSSSSEVEERVEELLEQLEEARREGDPHKFARIAKELVRLVEQNRNPELFQEVWRLYKELSSSSS
B37: il10ra_site1_normal_mot_HHH_b2_06977_000000171_0001_1_19_H_._HHH_b1_04617_0001_0000200032_0000001_0 (protein)
chain: SSSSDNQEALRLVLEAFRAALRGNPEEARELLREAEELAERAGNEQLLRVIRELLKARENGSSSS

molecular target: il10ra, Q13651; assay: yeast display titration

Binder | apparent Kd
B1 | inactive: no binding seen
B2 | inactive: no binding seen
B3 | inactive: no binding seen
B4 | inactive: no binding seen
B5 | inactive: no binding seen
B6 | inactive: no binding seen
B7 | inactive: no binding seen
B8 | inactive: no binding seen
B9 | inactive: no binding seen
B10 | inactive: no binding seen
B11 | inactive: no binding seen
B12 | inactive: no binding seen
B13 | inactive: no binding seen
B14 | inactive: no binding seen
B15 | inactive: no binding seen
B16 | inactive: no binding seen
B17 | inactive: no binding seen
B18 | inactive: no binding seen
B19 | inactive: no binding seen

Binder | apparent Kd
B20 | inactive: no binding seen
B21 | inactive: no binding seen
B22 | inactive: no binding seen
B23 | inactive: no binding seen
B24 | inactive: no binding seen
B25 | inactive: no binding seen
B26 | inactive: no binding seen
B27 | inactive: no binding seen
B28 | inactive: no binding seen
B29 | inactive: no binding seen
B30 | inactive: no binding seen
B31 | inactive: no binding seen
B32 | inactive: no binding seen
B33 | inactive: no binding seen
B34 | inactive: no binding seen
B35 | inactive: no binding seen
B36 | inactive: no binding seen
B37 | inactive: no binding seen

Looked up one by one from the list above:
Binder | apparent Kd
B36 | inactive: no binding seen
B23 | inactive: no binding seen
